One molecule from article PMC10925025 can be followed below.

No constants are given. Whether binding was seen depends on the method and setting. In cells and extracts the contact can be indirect. Binding calls can cover weak binding; strength is not graded here. Sequences can lack the tags named with a protein.

In the test the target is GST-STAP-2 C (C-terminal proline-rich region of STAP-2 fused to GST). The test is described as follows: pull-down; HEK293T co-transfected with Myc-CAP and GST-STAP-2 constructs; lysed 36 h after transfection (50 mM Tris-HCl pH 7.4, 0.15 M NaCl, 1% NP-40); GSH-sepharose 2 h at 4 °C; blots with anti-Myc and anti-GST.

B1: Myc-tagged c-Cbl associated protein (CAP) (protein, UniProt Q62417 1-1290)
chain: MSSECDVGSSKAVVNGLASGNHGPDKDMDPTKICTGKGTVTLRASSSYRGTPSSSPVSPQESPKHESKSGLEPEDPSADEWKLSSSADTNGNAQPSPLAAKGYRSVHPSLSADKPQGSPLLNEVSSSHIETDSQDFPPTSRPSSAYPSTTIVNPTIVLLQHNRDPASERRAGEQDPVPTPAELTSPGRASERRAKDASRRVVRSAQDLSDVSTDEVGIPLRNTERSKDWYKTMFKQIHKLNRDDDSDVHSPRYSFSDDTKSPLSVPRSKSEMNYIEGEKVVKRSATLPLPARSSSLKSSPERNDWEPLDKKVDTRKYRAEPKSIYEYQPGKSSVLTNEKMSRDISPEEIDLKNEPWYKFFSELEFGRPTNLEKDLSFCQAELEADLEKVETVNKSPSANSPQSSAVSPTPDITSEPPGYIYSSNFHAVKRESDGTPGGLASLENERQIYKSVLEGGDIPLQGLSGLKRPSSSASTKVDRKGGNAHMISSSSVHSRTFHTSNALGPGCKHKKPLSAAKACISEILPSKFKPRLSAPSALLQEQKSVLLPSEKAQSCENLCVSLNDSKRGLPLRVGGSIENLLMRSRRDYDSKSSSTMSLQEYGTSSRRPCPLSRKAGLHFSMFYRDMHQINRAGLSLGSISSSSVRDLASHFERSSLTLARGELGASQEGSEHIPKHTVSSRITAFEQLIQRSRSMPSLDFSGRLSKSPTPVLSRSGLTSARSAESLLESTKLRPREMDGMDSGGVYASPTCSNMADHALSFRSLVPSEPLSICSDELDHCSNVSNDSREGSGGSVHGDFPKHRLNKCKGTCPASYTRFTTIRKHEQQSSRQSDWRSDSRGDKNSLLRNIHLMSPLPFRLKKPLQQHPRQPPPSDSSESPAGQKADLPCHDPQDQPHSAGKPQVPTRLSSRHTMARLSHNSEPPLDRPAGLEDCTRAINNGNPVPYSDHGLDRNNNPQSELAAAHGDSESPRHFIPADYLESTEEFIRRRHDDKEKLLADQRRLKREQEEADIAARRHTGVIPTHHQFITNERFGDLLNIDDTAKRKSGLEMRPARAKFDFKAQTLKELPLQKGDVVYIYRQIDQNWYEGEHHGRVGIFPRTYIELLPPAEKAQPRKLAPVQVLEYGEAIAKFNFNGDTQVEMSFRKGERITLLRQVDENWYEGRIPGTSRQGIFPITYVDVLKRPLVKTPVDYIDLPYSSSPSRSATVSPQQPQAQQRRVTPDRSQPSLDLCSYQALYSYVPQNDDELELRDGDIVDVMEKCDDGWFVGTSRRTRQFGTFPGNYVKPLYL
Take B1: the binding entry is reported as “binds”.
